From PMC7642295
Results are given in words; binding and its absence hold for the method and conditions named. In cells and extracts the contact can be indirect. Some binding calls cover weakened binding; strength is not graded here.

Protein sequences, listed by entry. Tags and fused reporters are not part of them. Lines headed by an entry give the natural chain unless they say otherwise; changes in a name come on top.
UniProt Q9Y238: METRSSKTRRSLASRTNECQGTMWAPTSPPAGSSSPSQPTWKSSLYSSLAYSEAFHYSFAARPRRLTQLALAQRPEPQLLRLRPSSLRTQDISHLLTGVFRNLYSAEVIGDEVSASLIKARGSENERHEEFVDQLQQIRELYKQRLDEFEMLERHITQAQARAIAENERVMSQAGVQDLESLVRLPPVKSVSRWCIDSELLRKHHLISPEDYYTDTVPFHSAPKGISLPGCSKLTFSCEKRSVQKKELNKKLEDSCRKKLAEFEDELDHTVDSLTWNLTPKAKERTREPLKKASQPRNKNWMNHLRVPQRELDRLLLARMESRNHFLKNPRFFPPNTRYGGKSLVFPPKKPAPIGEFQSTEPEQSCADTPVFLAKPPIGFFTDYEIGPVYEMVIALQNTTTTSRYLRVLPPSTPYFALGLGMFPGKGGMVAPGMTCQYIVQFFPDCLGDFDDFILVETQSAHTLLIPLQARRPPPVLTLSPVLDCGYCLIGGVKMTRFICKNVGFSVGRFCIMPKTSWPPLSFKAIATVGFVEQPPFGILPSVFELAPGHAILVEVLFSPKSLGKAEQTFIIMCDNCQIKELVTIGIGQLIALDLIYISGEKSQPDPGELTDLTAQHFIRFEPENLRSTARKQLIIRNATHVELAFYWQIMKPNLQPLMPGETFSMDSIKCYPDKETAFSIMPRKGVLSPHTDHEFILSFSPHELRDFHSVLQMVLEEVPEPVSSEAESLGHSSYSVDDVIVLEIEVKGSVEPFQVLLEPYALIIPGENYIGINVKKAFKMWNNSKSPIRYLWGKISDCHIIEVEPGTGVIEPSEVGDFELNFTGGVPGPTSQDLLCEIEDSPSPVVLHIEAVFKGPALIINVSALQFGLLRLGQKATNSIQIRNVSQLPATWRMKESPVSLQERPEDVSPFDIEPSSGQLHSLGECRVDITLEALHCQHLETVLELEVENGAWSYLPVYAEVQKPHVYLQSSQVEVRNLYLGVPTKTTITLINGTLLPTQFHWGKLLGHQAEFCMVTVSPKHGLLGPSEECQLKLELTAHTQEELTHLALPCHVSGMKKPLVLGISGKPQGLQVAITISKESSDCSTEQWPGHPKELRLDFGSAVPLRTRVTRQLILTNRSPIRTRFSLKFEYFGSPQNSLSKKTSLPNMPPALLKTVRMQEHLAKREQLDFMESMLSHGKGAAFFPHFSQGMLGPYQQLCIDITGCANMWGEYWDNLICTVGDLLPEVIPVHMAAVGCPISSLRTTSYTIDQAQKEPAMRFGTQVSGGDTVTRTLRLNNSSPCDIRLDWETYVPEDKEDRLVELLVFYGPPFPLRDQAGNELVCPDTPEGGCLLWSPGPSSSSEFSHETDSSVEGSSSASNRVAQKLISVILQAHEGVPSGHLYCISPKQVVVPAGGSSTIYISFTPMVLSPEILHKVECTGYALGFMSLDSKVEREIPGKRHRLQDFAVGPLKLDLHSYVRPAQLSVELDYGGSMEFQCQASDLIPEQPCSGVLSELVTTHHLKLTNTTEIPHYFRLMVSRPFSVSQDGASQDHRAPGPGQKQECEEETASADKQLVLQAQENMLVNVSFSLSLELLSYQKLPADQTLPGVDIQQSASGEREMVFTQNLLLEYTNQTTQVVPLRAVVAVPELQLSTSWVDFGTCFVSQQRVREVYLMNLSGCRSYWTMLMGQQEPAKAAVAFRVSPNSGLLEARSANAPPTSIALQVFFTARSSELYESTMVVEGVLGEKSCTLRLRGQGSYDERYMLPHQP

B1: T-complex protein 1 subunit beta isoform 2 (protein, UniProt P78371-2 1-488)
chain: MDKILLSSGRDASLMVTNDGATILKNIGVDNPAAKVLVDMSRVQDDEVGDGTTSVTVLAAELLREAESLIAKKIHPQTIIAGWREATKAAREALLSSAVDHGSDEVKFRQDLMNIAGTTLSSKLLTHHKDHFTKLAVEAVLRLKGSGNLEAIHIIKKLGGSLADSYLDEGFLLDKKIGVNQPKRIENAKILIANTGMDTDKIKIFGSRVRVDSTAKVAEIEHAEKEKMKEKVERILKHGINCFINRQLIYNYPEQLFGAAGVMAIEHADFAGVERLALVTGGEIASTFDHPELVKLGSCKLIEEVMIGEDKLIHFSGVALGEACTIVLRGATQQILDEAERSLHDALCVLAQTVKDSRTVYGGGCSEMLMAHAVTQLANRTPGKEAVAMESYAKALRMLPTIIADNAGYDSADLVAQLRAAHSEGNTTAGLDMREGTIGDMAILGITESFQVKRQVLLSAAEAAEVILRVDNIIKAAPRKRVPDHHPC
B2: T-complex protein 1 subunit gamma isoform c (protein, UniProt P49368-2 1-507)
chain: MMGHRPVLVLSQNTKRESGRKVQSGNINAAKIQVQHPAAKSMIEISRTQDEEVGDGTTSVIILAGEMLSVAEHFLEQQMHPTVVISAYRKALDDMISTLKKISIPVDISDSDMMLNIINSSITTKAISRWSSLACNIALDAVKMVQFEENGRKEIDIKKYARVEKIPGGIIEDSCVLRGVMINKDVTHPRMRRYIKNPRIVLLDSSLEYKKGESQTDIEITREEDFTRILQMEEEYIQQLCEDIIQLKPDVVITEKGISDLAQHYLMRANITAIRRVRKTDNNRIARACGARIVSRPEELREDDVGTGAGLLEIKKIGDEYFTFITDCKDPKACTILLRGASKEILSEVERNLQDAMQVCRNVLLDPQLVPGGGASEMAVAHALTEKSKAMTGVEQWPYRAVAQALEVIPRTLIQNCGASTIRLLTSLRAKHTQENCETWGVNGETGTLVDMKELGIWEPLAVKLQTYKTAVETAVLLLRIDDIVSGHKKKGDDQSRQGGAPDAGQE
B3: T-complex protein 1 subunit delta isoform a (protein, UniProt P50991-1 1-539)
chain: MPENVAPRSGATAGAAGGRGKGAYQDRDKPAQIRFSNISAAKAVADAIRTSLGPKGMDKMIQDGKGDVTITNDGATILKQMQVLHPAARMLVELSKAQDIEAGDGTTSVVIIAGSLLDSCTKLLQKGIHPTIISESFQKALEKGIEILTDMSRPVELSDRETLLNSATTSLNSKVVSQYSSLLSPMSVNAVMKVIDPATATSVDLRDIKIVKKLGGTIDDCELVEGLVLTQKVSNSGITRVEKAKIGLIQFCLSAPKTDMDNQIVVSDYAQMDRVLREERAYILNLVKQIKKTGCNVLLIQKSILRDALSDLALHFLNKMKIMVIKDIEREDIEFICKTIGTKPVAHIDQFTADMLGSAELAEEVNLNGSGKLLKITGCASPGKTVTIVVRGSNKLVIEEAERSIHDALCVIRCLVKKRALIAGGGAPEIELALRLTEYSRTLSGMESYCVRAFADAMEVIPSTLAENAGLNPISTVTELRNRHAQGEKTAGINVRKGGISNILEELVVQPLLVSVSALTLATETVRSILKIDDVVNTR
B4: BBS2 (protein, UniProt Q9BXC9 1-721)
chain: MLLPVFTLKLRHKISPRMVAIGRYDGTHPCLAAATQTGKVFIHNPHTRNQHVSASRVFQSPLESDVSLLSINQAVSCLTAGVLNPELGYDALLVGTQTNLLAYDVYNNSDLFYREVADGANAIVLGTLGDISSPLAIIGGNCALQGFNHEGSDLFWTVTGDNVNSLALCDFDGDGKKELLVGSEDFDIRVFKEDEIVAEMTETEIVTSLCPMYGSRFGYALSNGTVGVYDKTSRYWRIKSKNHAMSIHAFDLNSDGVNELITGWSNGKVDARSDRTGEVIFKDNFSSAIAGVVEGDYRMDGHIQLICCSVDGEIRGYLPGTAEMRGNLMDTSAEQDLIRELSQKKQNLLLELRNYEENAKAELASPLNEADGHRGIIPANTRLHTTLSVSLGNETQTAHTELRISTSNDTIIRAVLIFAEGIFTGESHVVHPSIHNLSSSICIPIVPPKDVPVDLHLKAFVGYRSSTQFHVFESTRQLPRFSMYALTSLDPASEPISYVNFTIAERAQRVVVWLGQNFLLPEDTHIQNAPFQVCFTSLRNGGHLHIKIKLSGEITINTDDIDLAGDIIQSMASFFAIEDLQVEADFPVYFEELRKVLVKVDEYHSVHQKLSADMADHSNLIRSLLVGAEDARLMRDMKTMKSRYMELYDLNRDLLNGYKIRCNNHTELLGNLKAVNQAIQRAGRLRVGKPKNQVITACRDAIRSNNINTLFKIMRVGTASS
B5: BBS4 (protein, UniProt Q96RK4 1-519)
chain: MAEERVATRTQFPVSTESQKPRQKKAPEFPILEKQNWLIHLHYIRKDYEACKAVIKEQLQETQGLCEYAIYVQALIFRLEGNIQESLELFQTCAVLSPQSADNLKQVARSLFLLGKHKAAIEVYNEAAKLNQKDWEISHNLGVCYIYLKQFNKAQDQLHNALNLNRHDLTYIMLGKIHLLEGDLDKAIEVYKKAVEFSPENTELLTTLGLLYLQLGIYQKAFEHLGNALTYDPTNYKAILAAGSMMQTHGDFDVALTKYRVVACAVPESPPLWNNIGMCFFGKKKYVAAISCLKRANYLAPFDWKILYNLGLVHLTMQQYASAFHFLSAAINFQPKMGELYMLLAVALTNLEDIENAKRAYAEAVHLDKCNPLVNLNYAVLLYNQGEKKNALAQYQEMEKKVSLLKDNSSLEFDSEMVEMAQKLGAALQVGEALVWTKPVKDPKSKHQTTSTSKPASFQQPLGSNQALGQAMSSAAAYRTLPSGAGGTSQFTKPPSLPLEPEPAVESSPTETSEQIREK
B6: BBS5 (protein, UniProt Q8N3I7 1-341)
chain: MSVLDALWEDRDVRFDLSAQQMKTRPGEVLIDCLDSIEDTKGNNGDRGRLLVTNLRILWHSLALSRVNVSVGYNCILNITTRTANSKLRGQTEALYILTKCNSTRFEFIFTNLVPGSPRLFTSVMAVHRAYETSKMYRDFKLRSALIQNKQLRLLPQEHVYDKINGVWNLSSDQGNLGTFFITNVRIVWHANMNDSFNVSIPYLQIRSIKIRDSKFGLALVIESSQQSGGYVLGFKIDPVEKLQESVKEINSLHKVYSASPIFGVDYEMEEKPQPLEALTVEQIQDDVEIDSDGHTDAFVAYFADGNKQQDREPVFSEELGLAIEKLKDGFTLQGLWEVMS
B7: BBS6 (protein, UniProt Q9NPJ1 1-570)
chain: MSRLEAKKPSLCKSEPLTTERVRTTLSVLKRIVTSCYGPSGRLKQLHNGFGGYVCTTSQSSALLSHLLVTHPILKILTASIQNHVSSFSDCGLFTAILCCNLIENVQRLGLTPTTVIRLNKHLLSLCISYLKSETCGCRIPVDFSSTQILLCLVRSILTSKPACMLTRKETEHVSALILRAFLLTIPENAEGHIILGKSLIVPLKGQRVIDSTVLPGILIEMSEVQLMRLLPIKKSTALKVALFCTTLSGDTSDTGEGTVVVSYGVSLENAVLDQLLNLGRQLISDHVDLVLCQKVIHPSLKQFLNMHRIIAIDRIGVTLMEPLTKMTGTQPIGSLGSICPNSYGSVKDVCTAKFGSKHFFHLIPNEATICSLLLCNRNDTAWDELKLTCQTALHVLQLTLKEPWALLGGGCTETHLAAYIRHKTHNDPESILKDDECTQTELQLIAEAFCSALESVVGSLEHDGGEILTDMKYGHLWSVQADSPCVANWPDLLSQCGCGLYNSQEELNWSFLRSTRRPFVPQSCLPHEAVGSASNLTLDCLTAKLSGLQVAVETANLILDLSYVIEDKN

Target: 3 × FLAG-tagged human DLEC1 (deleted in lung and esophageal cancer 1) (human) (UniProt Q9Y238)
Experiment: co-IP; 3 × FLAG-hDLEC1 or empty vector expressed in HEK293F; lysate incubated overnight with 1 µg anti-FLAG antibody and protein G-agarose beads at 4 °C; western blotting with antibodies to the endogenous partners

binding, binds:
T-complex protein 1 subunit epsilon isoform a (from UniProt P48643-1 1-541), B1, B2, B3, B4, B5, B6, B7
